Test results reported in paper PMC11868397.
No constants are given. Whether binding was seen depends on the method and setting. Binding seen in cells or lysates may run through a third protein. Some entries that bind do so weakly or less than the wild type.

Columns and labels:
[1] = molecular target: T1, endogenous MAVS (ID8 cells) (mouse (endogenous in ID8)) (UniProt Q8VCF0); assay: co-IP; endogenous proteins in ID8 lysate; indicated antibody (anti-USP35 or anti-MAVS) and protein A/G beads 3 h at 4 °C; immunoblot
T1 sequence: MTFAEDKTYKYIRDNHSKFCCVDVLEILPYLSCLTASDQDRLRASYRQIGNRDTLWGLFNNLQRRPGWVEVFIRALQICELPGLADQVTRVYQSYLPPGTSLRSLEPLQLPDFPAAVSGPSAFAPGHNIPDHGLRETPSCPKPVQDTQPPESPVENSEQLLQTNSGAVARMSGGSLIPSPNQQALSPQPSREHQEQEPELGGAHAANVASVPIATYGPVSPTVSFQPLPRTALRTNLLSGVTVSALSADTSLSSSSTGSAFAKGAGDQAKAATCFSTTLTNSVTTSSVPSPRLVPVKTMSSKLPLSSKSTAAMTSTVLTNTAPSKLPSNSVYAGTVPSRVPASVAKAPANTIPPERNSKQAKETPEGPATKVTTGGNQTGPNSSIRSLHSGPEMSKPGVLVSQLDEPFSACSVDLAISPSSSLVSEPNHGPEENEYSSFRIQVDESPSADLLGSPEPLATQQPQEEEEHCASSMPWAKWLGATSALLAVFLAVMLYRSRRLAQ

[2] = molecular target: T2, endogenous USP35 (ID8 cells) (mouse (endogenous in ID8)) (UniProt M0QWN7); assay: as above
T2 sequence: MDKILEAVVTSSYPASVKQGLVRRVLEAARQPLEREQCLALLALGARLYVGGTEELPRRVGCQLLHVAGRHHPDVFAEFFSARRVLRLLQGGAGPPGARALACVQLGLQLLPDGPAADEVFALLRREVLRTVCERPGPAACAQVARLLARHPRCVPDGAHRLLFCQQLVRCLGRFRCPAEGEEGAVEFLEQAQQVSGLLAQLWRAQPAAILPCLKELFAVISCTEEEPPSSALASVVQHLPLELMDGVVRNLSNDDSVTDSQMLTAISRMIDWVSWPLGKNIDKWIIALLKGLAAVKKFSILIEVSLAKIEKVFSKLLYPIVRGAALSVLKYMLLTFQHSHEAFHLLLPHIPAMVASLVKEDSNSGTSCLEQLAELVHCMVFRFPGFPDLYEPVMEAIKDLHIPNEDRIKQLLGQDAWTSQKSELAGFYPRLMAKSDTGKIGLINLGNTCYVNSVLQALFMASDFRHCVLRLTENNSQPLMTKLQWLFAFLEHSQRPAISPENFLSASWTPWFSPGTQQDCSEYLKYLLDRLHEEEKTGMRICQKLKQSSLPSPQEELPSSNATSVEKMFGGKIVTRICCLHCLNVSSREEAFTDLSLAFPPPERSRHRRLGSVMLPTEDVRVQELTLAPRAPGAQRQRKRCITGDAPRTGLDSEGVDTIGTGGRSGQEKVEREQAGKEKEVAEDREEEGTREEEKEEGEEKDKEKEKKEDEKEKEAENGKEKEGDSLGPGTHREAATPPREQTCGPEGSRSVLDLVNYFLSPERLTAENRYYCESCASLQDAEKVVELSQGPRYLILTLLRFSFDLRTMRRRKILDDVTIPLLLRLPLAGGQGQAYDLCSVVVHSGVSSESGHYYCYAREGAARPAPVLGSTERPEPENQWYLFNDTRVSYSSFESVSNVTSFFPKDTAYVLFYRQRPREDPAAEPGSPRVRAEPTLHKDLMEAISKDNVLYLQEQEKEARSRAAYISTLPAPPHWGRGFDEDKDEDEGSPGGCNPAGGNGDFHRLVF

Binder | binding [1] | binding [2]
endogenous USP35 (ID8 cells) (enzyme, UniProt M0QWN7 1-1009) MDKILEAVVTSSYPASVKQGLVRRVLEAARQPLEREQCLALLALGARLYVGGTEELPRRVGCQLLHVAGRHHPDVFAEFFSARRVLRLLQGGAGPPGARALACVQLGLQLLPDGPAADEVFALLRREVLRTVCERPGPAACAQVARLLARHPRCVPDGAHRLLFCQQLVRCLGRFRCPAEGEEGAVEFLEQAQQVSGLLAQLWRAQPAAILPCLKELFAVISCTEEEPPSSALASVVQHLPLELMDGVVRNLSNDDSVTDSQMLTAISRMIDWVSWPLGKNIDKWIIALLKGLAAVKKFSILIEVSLAKIEKVFSKLLYPIVRGAALSVLKYMLLTFQHSHEAFHLLLPHIPAMVASLVKEDSNSGTSCLEQLAELVHCMVFRFPGFPDLYEPVMEAIKDLHIPNEDRIKQLLGQDAWTSQKSELAGFYPRLMAKSDTGKIGLINLGNTCYVNSVLQALFMASDFRHCVLRLTENNSQPLMTKLQWLFAFLEHSQRPAISPENFLSASWTPWFSPGTQQDCSEYLKYLLDRLHEEEKTGMRICQKLKQSSLPSPQEELPSSNATSVEKMFGGKIVTRICCLHCLNVSSREEAFTDLSLAFPPPERSRHRRLGSVMLPTEDVRVQELTLAPRAPGAQRQRKRCITGDAPRTGLDSEGVDTIGTGGRSGQEKVEREQAGKEKEVAEDREEEGTREEEKEEGEEKDKEKEKKEDEKEKEAENGKEKEGDSLGPGTHREAATPPREQTCGPEGSRSVLDLVNYFLSPERLTAENRYYCESCASLQDAEKVVELSQGPRYLILTLLRFSFDLRTMRRRKILDDVTIPLLLRLPLAGGQGQAYDLCSVVVHSGVSSESGHYYCYAREGAARPAPVLGSTERPEPENQWYLFNDTRVSYSSFESVSNVTSFFPKDTAYVLFYRQRPREDPAAEPGSPRVRAEPTLHKDLMEAISKDNVLYLQEQEKEARSRAAYISTLPAPPHWGRGFDEDKDEDEGSPGGCNPAGGNGDFHRLVF | binds | –
endogenous MAVS (ID8 cells) (protein, UniProt Q8VCF0 1-503) MTFAEDKTYKYIRDNHSKFCCVDVLEILPYLSCLTASDQDRLRASYRQIGNRDTLWGLFNNLQRRPGWVEVFIRALQICELPGLADQVTRVYQSYLPPGTSLRSLEPLQLPDFPAAVSGPSAFAPGHNIPDHGLRETPSCPKPVQDTQPPESPVENSEQLLQTNSGAVARMSGGSLIPSPNQQALSPQPSREHQEQEPELGGAHAANVASVPIATYGPVSPTVSFQPLPRTALRTNLLSGVTVSALSADTSLSSSSTGSAFAKGAGDQAKAATCFSTTLTNSVTTSSVPSPRLVPVKTMSSKLPLSSKSTAAMTSTVLTNTAPSKLPSNSVYAGTVPSRVPASVAKAPANTIPPERNSKQAKETPEGPATKVTTGGNQTGPNSSIRSLHSGPEMSKPGVLVSQLDEPFSACSVDLAISPSSSLVSEPNHGPEENEYSSFRIQVDESPSADLLGSPEPLATQQPQEEEEHCASSMPWAKWLGATSALLAVFLAVMLYRSRRLAQ | – | binds
